These are yes or no findings as the source states them, for the method shown. For part of these data: In cells and extracts the contact can be indirect. Some results given as binding are weak or reduced against the parent protein; the word gives no strength. For part of these data: Sequences can lack the tags named with a protein.
How the values were obtained:
[1] = molecular target: T1, CD16 receptor (FcγRIIIA/CD16), endogenous in Raw264.7 (mouse (endogenous in Raw264.7)) (UniProt P08508); experiment: co-IP; endogenous proteins in Raw264.7 stimulated with conditioned medium of 4T1 cells (the text says co-cultured with 4T1 for Vtn-C1qbp); whole lysate, and also the membrane fraction for Vtn-C1qbp; antibody-coated Protein A/G magnetic beads, overnight at 4 °C; washes in PBS + 0.5% Tween-20, pH 7.4
T1 sequence: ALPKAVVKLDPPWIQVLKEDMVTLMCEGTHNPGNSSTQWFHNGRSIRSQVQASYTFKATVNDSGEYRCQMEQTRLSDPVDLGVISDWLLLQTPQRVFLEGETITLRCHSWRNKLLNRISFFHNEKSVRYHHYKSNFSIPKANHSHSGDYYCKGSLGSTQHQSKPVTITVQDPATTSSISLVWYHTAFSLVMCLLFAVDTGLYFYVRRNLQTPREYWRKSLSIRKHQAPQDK

Amino acid sequences for entries named in this document (tags omitted).
UniProt P29351: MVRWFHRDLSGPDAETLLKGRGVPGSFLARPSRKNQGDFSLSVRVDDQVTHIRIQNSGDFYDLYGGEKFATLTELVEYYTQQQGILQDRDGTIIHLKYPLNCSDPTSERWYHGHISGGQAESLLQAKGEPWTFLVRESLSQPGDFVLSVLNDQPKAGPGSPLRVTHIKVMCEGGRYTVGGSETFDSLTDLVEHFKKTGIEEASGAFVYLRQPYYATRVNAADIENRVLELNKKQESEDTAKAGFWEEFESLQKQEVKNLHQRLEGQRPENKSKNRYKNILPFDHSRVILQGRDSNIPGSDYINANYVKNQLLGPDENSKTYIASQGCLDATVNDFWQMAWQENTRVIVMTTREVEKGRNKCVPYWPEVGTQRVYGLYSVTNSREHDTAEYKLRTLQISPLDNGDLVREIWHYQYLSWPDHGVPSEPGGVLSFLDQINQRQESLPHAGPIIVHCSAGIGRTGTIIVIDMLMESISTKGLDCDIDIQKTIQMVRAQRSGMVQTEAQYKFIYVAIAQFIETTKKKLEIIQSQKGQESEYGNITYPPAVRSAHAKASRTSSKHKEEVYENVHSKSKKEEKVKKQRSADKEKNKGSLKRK

[2] = molecular target: T2, complement C1Q binding protein (C1qbp), endogenous in Raw264.7 macrophages (mouse (endogenous in Raw264.7)) (UniProt O35658); experiment: flow cytometry on cells; control or C1qbp-knockdown Raw264.7 cells stimulated with conditioned medium from 4T1 cells expressing Myc-tagged Vtn; Myc-Vtn detected on the cell surface
T2 sequence: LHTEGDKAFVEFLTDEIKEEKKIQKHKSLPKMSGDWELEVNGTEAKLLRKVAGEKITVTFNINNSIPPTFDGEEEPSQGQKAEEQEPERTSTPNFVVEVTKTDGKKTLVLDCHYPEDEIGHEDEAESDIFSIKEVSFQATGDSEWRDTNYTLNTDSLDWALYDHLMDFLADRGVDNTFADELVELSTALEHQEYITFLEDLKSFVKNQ

[3] = molecular target: T2, complement C1Q binding protein (C1qbp), endogenous in Raw264.7 macrophages (mouse (endogenous in Raw264.7)); experiment: co-IP; endogenous proteins in Raw264.7 stimulated with conditioned medium of 4T1 cells (the text says co-cultured with 4T1 for Vtn-C1qbp); whole lysate, and also the membrane fraction for Vtn-C1qbp; antibody-coated Protein A/G magnetic beads, overnight at 4 °C; washes in PBS + 0.5% Tween-20, pH 7.4
[4] = molecular target: T3, Flag-tagged C1qbpΔαA (C1qbp lacking the αA domain, amino acid residues 77-96) (mouse) (UniProt O35658); experiment: co-IP; HEK293T cells co-transfected with Myc-tagged Vtn and Flag-tagged full-length C1qbp or C1qbpΔαA; western blotting
T3 sequence: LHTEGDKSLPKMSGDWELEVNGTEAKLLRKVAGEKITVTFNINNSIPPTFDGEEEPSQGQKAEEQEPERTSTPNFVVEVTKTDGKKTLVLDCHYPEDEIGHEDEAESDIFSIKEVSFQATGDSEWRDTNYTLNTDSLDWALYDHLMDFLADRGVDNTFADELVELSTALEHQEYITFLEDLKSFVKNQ

[5] = molecular target: T4, Flag-tagged full-length C1qbp (C1qbp FL) (mouse) (UniProt O35658); experiment: as above
T4 sequence: T2 sequence

Molecule: tyrosine phosphatase Src homologous region 2 containing phosphatase 1 (Shp1), endogenous in Raw264.7 (from UniProt P29351 1-595) (enzyme)
- binding [1]: binds

B1: Myc-tagged Vtn (vitronectin) in conditioned medium of 4T1 (Myc-Vtn^OE) cells (ligand, UniProt P29788 20-478)
chain: DQESCKGRCTQGFMASKKCQCDELCTYYQSCCADYMEQCKPQVTRGDVFTMPEDDYWSYDYVEEPKNNTNTGVQPENTSPPGDLNPRTDGTLKPTAFLDPEEQPSTPAPKVEQQEEILRPDTTDQGTPEFPEEELCSGKPFDAFTDLKNGSLFAFRGQYCYELDETAVRPGYPKLIQDVWGIEGPIDAAFTRINCQGKTYLFKGSQYWRFEDGVLDPGYPRNISEGFSGIPDNVDAAFALPAHRYSGRERVYFFKGKQYWEYEFQQQPSQEECEGSSLSAVFEHFALLQRDSWENIFELLFWGRSSDGAREPQFISRNWHGVPGKVDAAMAGRIYVTGSLSHSAQAKKQKSKRRSRKRYRSRRGRGHRRSQSSNSRRSSRSIWFSLFSSEESGLGTYNNYDYDMDWLVPATCEPIQSVYFFSGDKYYRVNLRTRRVDSVNPPYPRSIAQYWLGCPTSEK
- binding [2]: binds

B2: Vitronectin (Vtn) secreted by 4T1 tumor cells (ligand, UniProt P29788 20-478)
chain: B1 chain
- binding [3]: binds

B3: Myc-tagged Vtn expressed in HEK293T cells (ligand, UniProt P29788 20-478)
chain: B1 chain
- binding [4]: binds
- binding [5]: binds

B4: CD16 receptor (FcγRIIIA/CD16), endogenous in Raw264.7 (receptor, UniProt P08508 31-261)
chain: T1 sequence
- binding [3]: binds

From PMC11103506
